In PMC5951851:

Target: XLG2CTΔG4 (Arabidopsis thaliana)
Experiment: co-IP; Arabidopsis protoplasts (Col-0 or rgs1-2) transfected, with or without 1 μM flg22 for 5 min, with or without co-expressed RGS1 variants; extraction buffer 50 mM HEPES pH 7.5, 150 mM KCl, 10 mM EDTA, 0.5% Triton X-100, 1 mM DTT; anti-FLAG M2 agarose, eluted with 3×FLAG peptide; anti-HA and anti-FLAG immunoblots

binding: binds
B1: AGB1-HA (protein, UniProt P49177 1-377)
chain: MSVSELKERHAVATETVNNLRDQLRQRRLQLLDTDVARYSAAQGRTRVSFGATDLVCCRTLQGHTGKVYSLDWTPERNRIVSASQDGRLIVWNALTSQKTHAIKLPCAWVMTCAFSPNGQSVACGGLDSVCSIFSLSSTADKDGTVPVSRMLTGHRGYVSCCQYVPNEDAHLITSSGDQTCILWDVTTGLKTSVFGGEFQSGHTADVLSVSISGSNPNWFISGSCDSTARLWDTRAASRAVRTFHGHEGDVNTVKFFPDGYRFGTGSDDGTCRLYDIRTGHQLQVYQPHGDGENGPVTSIAFSVSGRLLFAGYASNNTCYVWDTLLGEVVLDLGLQQDSHRNRISCLGLSADGSALCTGSWDSNLKIWAFGGHRRVI

No constants are given. Whether binding was seen depends on the method and setting. In cells and extracts the contact can be indirect. Binding calls can cover weak binding; strength is not graded here. Sequences can lack the tags named with a protein.
